These are yes or no findings as the source states them, for the method shown. In cells and extracts the contact can be indirect. Some results given as binding are weak or reduced against the parent protein; the word gives no strength. For some of these results: Tags and fused reporters may be left off the sequences shown.
Legend:
[1] = target: T1, Myc-perilipin-YFPc (UniProt O60240); assay: split reporter; BiFC with YFP fragments in differentiating 3T3-L1 cells; 37 °C 48 h, then 32 °C 20 h and 30 °C 4 h; fixed, confocal microscopy
T1 sequence: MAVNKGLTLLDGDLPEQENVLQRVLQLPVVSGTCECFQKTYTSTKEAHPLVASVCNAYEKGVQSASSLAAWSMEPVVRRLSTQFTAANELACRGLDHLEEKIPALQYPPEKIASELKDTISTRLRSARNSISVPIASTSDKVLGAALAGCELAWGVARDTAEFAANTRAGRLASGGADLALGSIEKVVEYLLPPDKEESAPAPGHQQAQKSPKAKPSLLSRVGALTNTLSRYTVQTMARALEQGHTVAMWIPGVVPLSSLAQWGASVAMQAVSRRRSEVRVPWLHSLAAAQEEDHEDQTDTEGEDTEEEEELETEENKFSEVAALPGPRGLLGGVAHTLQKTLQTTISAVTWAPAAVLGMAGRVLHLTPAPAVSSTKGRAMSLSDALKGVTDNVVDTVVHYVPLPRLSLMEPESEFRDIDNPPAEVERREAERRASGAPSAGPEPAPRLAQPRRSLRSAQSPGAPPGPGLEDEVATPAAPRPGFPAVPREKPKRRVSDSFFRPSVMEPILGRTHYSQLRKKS

[2] = target: T2, endogenous perilipin (human (endogenous in SGBS)) (UniProt O60240); assay: co-IP; SGBS adipocytes transduced with Seipin-MycHis, differentiated seven days with doxycycline; Pierce IP Lysis Buffer; endogenous perilipin precipitated with anti-perilipin mAb and Protein A beads; blots for Myc and seipin
T2 sequence: T1 sequence

[3] = target: T3, FLAG-perilipin (in HEK293 cells) (UniProt O60240); assay: co-IP; HEK293 cells co-transfected; lysis in 50 mM n-octyl-b-D-glucopyranoside, 50 mM Tris pH 6.8, 150 mM NaCl, 1 mM EDTA; anti-FLAG-agarose 2 h at 4 °C, elution with 3xFLAG peptide; blots for Myc, FLAG and calnexin
T3 sequence: T1 sequence

[4] = target: T4, seipin-Myc (UniProt Q96G97 1-398); assay: co-IP; FLAG-perilipin and seipin-Myc co-expressed in tsA 201 cells; proteins isolated and eluted from anti-Myc agarose; perilipin in the eluates detected on blots by its FLAG tag
T4 construct: seipin (product of BSCL2) in the pcDNA3.1 MycHis vector; also called seipin dodecamers; not shown: Myc, C-terminal, kept; copies: 12
T4 sequence (looked up): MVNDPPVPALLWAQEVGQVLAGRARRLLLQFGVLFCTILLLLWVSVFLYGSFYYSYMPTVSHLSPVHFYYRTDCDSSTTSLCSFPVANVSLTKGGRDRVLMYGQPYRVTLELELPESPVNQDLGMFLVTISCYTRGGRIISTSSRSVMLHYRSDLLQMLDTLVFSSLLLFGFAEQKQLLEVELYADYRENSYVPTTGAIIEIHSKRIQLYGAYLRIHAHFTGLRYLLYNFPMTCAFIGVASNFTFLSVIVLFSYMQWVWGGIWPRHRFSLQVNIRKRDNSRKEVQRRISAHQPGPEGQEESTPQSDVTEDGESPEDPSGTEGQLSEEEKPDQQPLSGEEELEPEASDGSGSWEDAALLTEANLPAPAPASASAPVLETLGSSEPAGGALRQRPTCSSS

For “FLAG-seipin-YFPn (from UniProt Q96G97 1-398)”, the binding [1] was “binds”.

For “Seipin-MycHis (pLXI-Seipin-MycHis) (from UniProt Q96G97 1-398)”, the binding [2] was “binds”.

For “Wild-type Myc-seipin (WT) (from UniProt Q96G97 1-398)”, the binding [3] was “binds”.

B1: FLAG-perilipin (in tsA 201 cells) (natural protein, UniProt O60240 1-522, looked up)
chain: T1 sequence
notes: perilipin (product of PLIN1) in the pCMV3xFLAG vector; Same construct as m7, other host cells
For B1, the binding [4] was “binds”.

— paper PMC6531784, “Discovering metabolic disease gene interactions by correlated effects on cellular morphology” (Molecular Metabolism, 2019)
